Laboratory results as given in patent US20220204630A1 (SUNSHINE LAKE PHARMA, published 2022).
Results are given in words; binding and its absence hold for the method and conditions named.

B1: 2008 chimeric antibody (antibody, human IgG4 S228P, kappa, F234A L235A, V domains shown)
VH: EVLLQQSGPELVKPGASMKISCKASVYSFTAYTMNWVKQSHGKNLEWIGLINPHNGGTRYNQKFKGKATLTLDKSSSTAYMDLLSLTSEDSAVYYCAISRYGSSSFYFDVWGAGTTVAVSS
VL: QIVLSQSPAILSASPGEKVTMTCRASSSISYMHWYQQKPGSSPKPWISATSNLASGVPARFSGSGSGTSYSLTISGVEAEDAATYYCQQWSSNPPTFGGGTNLEIKR
notes: also called 20C8
B2: 2A5 chimeric antibody (antibody, human IgG4 S228P, kappa, F234A L235A, V domains shown)
VH: EVQLQQSGPELVKPGASMKISCKASGYSFTGYTMNWVKQSHGKNLEWIGLINPYNGGTNYNQKFKGKATLTVDKSSSTAYMELLSLTSEDSAVYYCAFSYYGSRGFYFDYWGQGTTLTVSS
VL: QIVLTQSPALMSASPGEKVTMTCSATSSVSYIYWYQQKPRSSPKPWIYLTSNLASGVPARFSGSGSGTSYSLTISSMEAEDAATYYCQQWSSNPPTFGGGTKLEIKR
notes: expressed in CHO cells
B3: 1B9 chimeric antibody (antibody, human IgG4 S228P, kappa, F234A L235A, V domains shown)
VH: QVHLQQSGAELMKPGASVKISCKATGYTFNIYWIDWVKQRPGHGLEWIGEILPGSGNTHYNENFKGKATMTADTSSNTAYMQLTSLTSEDSAVYYCARTDGRGYFDYWGQGTTLTVSS
VL: DIVLTQSPASLVVSLGQRATISCRTSKSVSSSAYSYMHWYQQKPGQPPKVLIYLASNLESGVPARFSGSGSGTDFTLNIHPVEEEDAATYYCQHSRELPFTFGSGTKLEIKR
notes: expressed in CHO cells
B4: 4H4 chimeric antibody (antibody, human IgG4 S228P, kappa, F234A L235A, V domains shown)
VH: EVQLQQSGPELVKPGASMKISCKASGYSFTGYTMNWVKQSHGKNLEWIGLINPYNGGTRYNQKFKGKATLTVDKSSSTAYMELLSLTSEDSAVYYCASSSYRNDGNWYFDVWGAGTTVTVSS
VL: DIVMTQSPAIMSASPGEKVTMTCSASSSVSYMHWYQQKSGTSPKRWIYDTSKLASGVPARFSGSGSGTSYSLTISSMETEDAATYYCQQWSSNPPTFGGGTKLELKR
notes: expressed in CHO cells
B5: 27H3 chimeric antibody (antibody, human IgG4 S228P, kappa, F234A L235A, V domains shown)
VH: QVQLQQSGAELMKPGASVKISCKTTGYRFSSYWIEWVKQRPGHGLEWLGEILPGRGIINYNENFRGKATFTADTSSNTAYVQLSSLTSEDSAVYFCARTDPPYFGVWGAGTTVTVSS
VL: QAVVTQESALTTSPGETVTLTCRSSTGAVTISNYANWVQEKPDHLFTGLIGGTNNRPPGVPARFSGSLIGDKAALTITGAQTEDEAIYFCVLWYSNHWVFGGGTKLTVLR
notes: expressed in CHO cells
B6: 23E12 chimeric antibody (antibody, human IgG4 S228P, kappa, F234A L235A, V domains shown)
VH: QVQLQQSGAELVRPGTSVKISCKASGYAFTNYWLGWMKQRPGHGLEWIGDFYPRTGNTFYNENFKGKVTLTADKSSNTAYMQLSSLTSEDSAVYLCARAGTGFDYWGQGTTLTVSS
VL: SIVMTQSPKSMSMSVGERVTLSCKASENVGGYVSWYQQKPDQSPKLLIYGASSRHTGVPDRFTGSGSETDFTLTISSVQAEDLAAYHCGQNYIYPFTFGGGTKLEIKR
notes: expressed in CHO cells
B7: 21E5 chimeric antibody (antibody, human IgG4 S228P, kappa, F234A L235A, V domains shown)
VH: QVQLQQSGAELMKPGASMKISCKATGYTFSTYWIEWVKQRPGHGLEWIGENLPGRHITNYNEKFKGKATFTADTSSNTAYMQLSSLTSEDSAVYYCARGRGTYYFDYWGQGTPLTVSS
VL: DIVMTQAAFSTPVTLGTSASISCRSSQSLLHSNGITYLYWYLQKPGQSPQLLIYQMSNLASGVPDRFSSSGSGTDFTLRISRVEAEDVGVYYCAQNLEFPFTFGSGTKLEIKR
notes: expressed in CHO cells

target: TrKC; experiment: ELISA, antibody titrated 0.019-20 µg/mL on TrKC

Row | Binder | binding
1 | B1 | no binding (tested: 20 µg/ml)
2 | B2 | no binding (tested: 20 µg/mL)
3 | B3 | no binding (tested: 20 µg/ml)
4 | B4 | no binding (tested: 20 µg/mL)
5 | B5 | no binding (tested: 20 µg/mL)
6 | B6 | no binding (tested: 20 µg/ml)
7 | B7 | no binding (tested: 20 µg/mL)

target: TrKB; experiment: ELISA, antibody 0.019-20 µg/mL

Row | Binder | binding
8 | B1 | no binding (tested: 20 µg/mL)
9 | B2 | no binding (tested: 20 µg/mL)
10 | B3 | no binding (tested: 20 µg/mL)
11 | B4 | no binding (tested: 20 µg/mL)
12 | B5 | no binding (tested: 20 µg/mL)
13 | B6 | no binding (tested: 20 µg/mL)
14 | B7 | no binding (tested: 20 µg/mL)

target: TrKC; experiment: ELISA, antibody 0.019-20 µg/mL

Row | Binder | binding
15 | B1 | no binding (tested: 20 µg/mL)
16 | B2 | no binding (tested: 20 µg/mL)
17 | B3 | no binding (tested: 20 µg/mL)
18 | B4 | no binding (tested: 20 µg/mL)
19 | B5 | no binding (tested: 20 µg/mL)
20 | B6 | no binding (tested: 20 µg/mL)
21 | B7 | no binding (tested: 20 µg/mL)

target: TrKB; experiment: ELISA, antibody titrated 0.019-20 µg/mL on TrKB

Row | Binder | binding
22 | B1 | no binding (tested: 20 µg/ml)
23 | B2 | no binding (tested: 20 µg/mL)
24 | B3 | no binding (tested: 20 µg/ml)
25 | B4 | no binding (tested: 20 µg/mL)
26 | B5 | no binding (tested: 20 µg/mL)
27 | B6 | no binding (tested: 20 µg/ml)
28 | B7 | no binding (tested: 20 µg/mL)
